Assay results as given in article PMC3223157.
Results are given in words; binding and its absence hold for the method and conditions named. In cells and extracts the contact can be indirect. Some binding calls cover weakened binding; strength is not graded here. Blank lines part the entries; values can stand above or below the molecule they belong to.

Sequences of proteins named here, by UniProt entry; tags and fusion partners are left off.
UniProt Q9JHK1: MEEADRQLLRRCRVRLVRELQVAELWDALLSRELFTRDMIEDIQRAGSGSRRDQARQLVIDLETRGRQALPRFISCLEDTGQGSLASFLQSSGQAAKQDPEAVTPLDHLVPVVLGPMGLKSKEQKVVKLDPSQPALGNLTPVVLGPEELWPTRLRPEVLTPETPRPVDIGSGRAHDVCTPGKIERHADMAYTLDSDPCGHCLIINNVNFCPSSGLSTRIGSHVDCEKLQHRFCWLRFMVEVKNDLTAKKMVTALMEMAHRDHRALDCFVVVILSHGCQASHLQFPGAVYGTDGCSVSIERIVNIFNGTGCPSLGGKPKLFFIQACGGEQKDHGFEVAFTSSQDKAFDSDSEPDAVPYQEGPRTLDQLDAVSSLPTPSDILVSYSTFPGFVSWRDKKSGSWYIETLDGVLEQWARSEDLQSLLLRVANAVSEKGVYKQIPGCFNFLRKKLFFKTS

What was measured:
[1] = target: T1, Apaf-1 (rat lung) (rat (endogenous in Sprague-Dawley rat lung)) (UniProt Q9EPV5); assay: co-IP; 250 ug cytosolic extract of lungs of non-septic, untreated rats (T0); rabbit polyclonal anti-Apaf-1, protein A/G beads; immunoblot for pro-caspase 9
T1 sequence: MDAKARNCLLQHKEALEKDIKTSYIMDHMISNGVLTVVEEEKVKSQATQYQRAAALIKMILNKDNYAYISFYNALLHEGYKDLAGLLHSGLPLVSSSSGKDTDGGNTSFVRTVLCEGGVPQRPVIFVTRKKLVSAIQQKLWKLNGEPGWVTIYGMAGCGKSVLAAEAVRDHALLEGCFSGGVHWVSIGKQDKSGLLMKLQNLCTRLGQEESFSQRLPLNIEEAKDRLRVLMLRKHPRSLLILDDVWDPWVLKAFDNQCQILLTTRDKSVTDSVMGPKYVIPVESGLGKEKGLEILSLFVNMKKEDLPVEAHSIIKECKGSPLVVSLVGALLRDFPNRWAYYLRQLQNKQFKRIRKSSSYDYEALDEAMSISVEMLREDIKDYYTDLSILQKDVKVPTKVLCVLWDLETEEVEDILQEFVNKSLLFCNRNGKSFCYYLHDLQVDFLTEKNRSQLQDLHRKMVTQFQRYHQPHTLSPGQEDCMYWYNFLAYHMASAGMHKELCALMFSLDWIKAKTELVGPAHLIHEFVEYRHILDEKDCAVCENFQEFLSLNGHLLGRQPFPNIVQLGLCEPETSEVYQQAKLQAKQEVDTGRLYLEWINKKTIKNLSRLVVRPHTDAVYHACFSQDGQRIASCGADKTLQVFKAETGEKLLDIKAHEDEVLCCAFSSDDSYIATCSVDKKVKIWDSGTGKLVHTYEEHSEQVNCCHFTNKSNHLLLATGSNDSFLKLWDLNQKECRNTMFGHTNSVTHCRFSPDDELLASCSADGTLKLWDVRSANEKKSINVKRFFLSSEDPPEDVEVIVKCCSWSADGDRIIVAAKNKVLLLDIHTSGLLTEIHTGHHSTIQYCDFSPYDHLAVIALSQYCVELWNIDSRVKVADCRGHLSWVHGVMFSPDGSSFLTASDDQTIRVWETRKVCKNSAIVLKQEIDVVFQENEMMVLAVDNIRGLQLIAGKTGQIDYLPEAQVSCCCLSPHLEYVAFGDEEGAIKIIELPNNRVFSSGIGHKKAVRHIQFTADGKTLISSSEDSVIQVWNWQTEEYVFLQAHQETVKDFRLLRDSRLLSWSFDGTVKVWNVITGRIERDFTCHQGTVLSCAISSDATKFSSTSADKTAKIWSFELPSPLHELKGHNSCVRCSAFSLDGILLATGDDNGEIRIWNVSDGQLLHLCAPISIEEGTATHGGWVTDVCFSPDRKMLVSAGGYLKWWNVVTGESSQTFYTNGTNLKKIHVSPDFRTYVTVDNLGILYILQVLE

[2] = target: T1, Apaf-1 (rat lung) (rat (endogenous in Sprague-Dawley rat lung)); assay: co-IP; 250 ug cytosolic extract of lungs of septic rats 48 h after 2CLP (treated with PBS, AdGFP or AdHSP); rabbit polyclonal anti-Apaf-1, anti-caspase 8 or anti-caspase 9, overnight at 4 C, protein A/G beads, three washes with lysis buffer; immunoblot
[3] = target: T2, caspase 8 (rat lung) (rat (endogenous in Sprague-Dawley rat lung)) (UniProt Q9JHX4); assay: as above
T2 sequence: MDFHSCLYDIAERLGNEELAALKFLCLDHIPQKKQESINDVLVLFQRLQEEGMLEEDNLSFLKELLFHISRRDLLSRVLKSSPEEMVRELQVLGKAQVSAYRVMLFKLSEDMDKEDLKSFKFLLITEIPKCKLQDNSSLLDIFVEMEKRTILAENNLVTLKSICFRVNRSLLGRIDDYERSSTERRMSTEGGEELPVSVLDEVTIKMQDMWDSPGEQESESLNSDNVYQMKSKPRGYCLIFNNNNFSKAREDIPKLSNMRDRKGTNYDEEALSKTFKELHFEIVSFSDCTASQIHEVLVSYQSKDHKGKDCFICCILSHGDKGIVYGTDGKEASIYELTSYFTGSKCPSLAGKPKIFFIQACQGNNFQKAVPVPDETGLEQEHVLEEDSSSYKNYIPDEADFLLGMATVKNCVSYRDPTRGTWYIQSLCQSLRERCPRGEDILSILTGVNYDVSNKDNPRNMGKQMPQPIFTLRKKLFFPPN

[4] = target: caspase 9 (rat lung) (rat (endogenous in Sprague-Dawley rat lung)) (UniProt Q9JHK1); assay: SEC + co-IP; cytosolic extracts of lungs of septic rats (2CLPPBS, 2CLPAdHSP) fractionated by molecular weight on Sephacryl S300 (20 mM Tris pH 8.0, 0.1 M NaCl, 0.02% NaN3) and precipitated with an antibody to caspase-9; immunoblot for caspase 9, caspase 8, pro-caspase 3, Hsp70 and Apaf-1
[5] = target: caspase 9 (rat lung) (rat (endogenous in Sprague-Dawley rat lung)) (UniProt Q9JHK1); assay: co-IP; 250 ug cytosolic extract of lungs of septic rats 48 h after 2CLP (treated with PBS, AdGFP or AdHSP); rabbit polyclonal anti-Apaf-1, anti-caspase 8 or anti-caspase 9, overnight at 4 C, protein A/G beads, three washes with lysis buffer; immunoblot
[6] = target: T2, caspase 8 (rat lung) (rat (endogenous in Sprague-Dawley rat lung)); assay: SEC + co-IP; cytosolic extracts of lungs of septic rats (2CLPPBS, 2CLPAdHSP) fractionated by molecular weight on Sephacryl S300 (20 mM Tris pH 8.0, 0.1 M NaCl, 0.02% NaN3) and precipitated with an antibody to caspase-9; immunoblot for caspase 9, caspase 8, pro-caspase 3, Hsp70 and Apaf-1

B1: Apaf-1 (rat lung) (protein, UniProt Q9EPV5 1-1249)
chain: T1 sequence
binding [4]: binds

B2: caspase 8 (rat lung) (enzyme, UniProt Q9JHX4 1-482)
chain: T2 sequence
binding [5]: binds
binding [4]: binds

More lines, main results first:

binding [2]: binds
Molecule: pro-caspase 9 (rat lung) (from UniProt Q9JHK1 1-454) (enzyme)
binding [1]: no binding (condition: non-septic, untreated animals (T0))

binding [3]: binds
Molecule: caspase 9 (rat lung) (from UniProt Q9JHK1 1-454) (enzyme)

binding [4]: binds
binding [6]: binds
B3: pro-caspase 3 (rat lung) (enzyme, UniProt P55213 1-277)
chain: MDNNETSVDSKSINNFETKTIHGSKSMDSGIYLDSSYKMDYPEMGLCIIINNKNFHKSTGMSARNGTDVDAANLRETFMALKYEVRNKNDLTREEIMELMDSVSKEDHSKRSSFVCVILSHGDEGVIFGTNGPVDLKKLTSFFRGDYCRSLTGKPKLFIIQACRGTELDCGIETDSGTDDDMACQKIPVEADFLYAYSTAPGYYSWRNSRDGSWFIQSLCAMLKLYAHKLEFMHILTRVNRKVATEFESFSLDATFHAKKQIPCIVSMLTKELYFYH
